The list does not hold the whole screen: it gathers some chemical classes. Other doses and runs of a compound may be missing. T/C: endpoint of the treated group in % of that of the vehicle group. For survival time, the PubChem record calls one and a half times the control and up active, and a quarter to a half above the control has no call in these data; cut-offs in other NCI protocols can differ. Some T/C values are marked as having no survivor count here; that says nothing about deaths at the dose. Schedules are NCI's codes, read here as Q, the interval in days (D) or hours (H), X, the number of doses. Some entries hold several experiments; their values stand side by side, smallest first.
Test system: CAF1 mice, leiomyosarcoma No.2 ip, survival T/C%
Test: NCI In Vivo Anticancer Drug Screen. Data for tumor model Leiomyosarcoma (No. 2) (intraperitoneal) in CAF1 mice
Conditions: T/C endpoint: mean survival time, schedule: Q01DX010 (ip), vehicle: saline, higher T/C = longer survival
Description: The antitumor activity of compounds was measured in mice bearing transplantable tumors. Survival or tumor size were measured and the results are expressed as the measurement made in the treated group (T) divided by the measurement made in the vehicle treated control group (C). The tumor model used in this assay is Leiomyosarcoma (No. 2) (intraperitoneal) in CAF1 mice

SMILES: O=C(O)CN(CCCl)CCCl
- T/C (dose: 0.63 mg/kg/injection): 125 [survivor count not shown] and 237 % of control [survivor count not shown]
- T/C (dose: 1.25 mg/kg/injection): 200 [survivor count not shown] and 237 % of control [survivor count not shown]
- T/C (dose: 2.5 mg/kg/injection): 141 [survivor count not shown] and 300 % of control [survivor count not shown]
- T/C (dose: 5.0 mg/kg/injection): 133 [survivor count not shown] and 220 % of control [survivor count not shown]

SMILES: NC(Cc1cccc(N(CCCl)CCCl)c1)C(=O)O (stereo unspecified)
- T/C (dose: 0.63 mg/kg/injection): 144 [survivor count not shown] and 209 % of control [survivor count not shown]
- T/C (dose: 1.25 mg/kg/injection): 210 [survivor count not shown] and 263 % of control [survivor count not shown]
- T/C (dose: 2.5 mg/kg/injection): 179 [survivor count not shown] and 250 % of control [survivor count not shown]
- T/C (dose: 5.0 mg/kg/injection): 89 % of control [survivor count not shown]

SMILES: CC(C(=O)O)N(CCCl)CCCl (stereo unspecified)
- T/C (dose: 0.5 mg/kg/injection): 145 [survivor count not shown] and 195 % of control [survivor count not shown]
- T/C (dose: 1.0 mg/kg/injection): 204 [survivor count not shown] and 212 % of control [survivor count not shown]
- T/C (dose: 2.0 mg/kg/injection): 175 [survivor count not shown] and 266 % of control [survivor count not shown]
- T/C (dose: 4.0 mg/kg/injection): 133 [survivor count not shown] and 137 % of control [survivor count not shown]

SMILES: ClCCN(CCCl)Cc1nc2ccccc2[nH]1
- T/C (dose: 0.63 mg/kg/injection): 113 % of control [survivor count not shown]
- T/C (dose: 1.25 mg/kg/injection): 144 [survivor count not shown] and 150 % of control [survivor count not shown]
- T/C (dose: 2.5 mg/kg/injection): 158 [survivor count not shown] and 240 % of control [survivor count not shown]
- T/C (dose: 5.0 mg/kg/injection): 179 % of control [survivor count not shown]

SMILES: NC1CCCCC1.NP(=O)(O)N(CCCl)CCCl
- T/C (dose: 15.6 mg/kg/injection): 127 % of control [survivor count not shown]
- T/C (dose: 31.3 mg/kg/injection): 300 % of control [survivor count not shown]
- T/C (dose: 62.5 mg/kg/injection): 300 % of control [survivor count not shown]

SMILES: ClCCNCCCl
- T/C (dose: 18.8 mg/kg/injection): 189 [survivor count not shown] and 241 % of control [survivor count not shown]
- T/C (dose: 37.5 mg/kg/injection): 282 [survivor count not shown] and 300 % of control [survivor count not shown]

Source: PubChem BioAssay AID238 (DTP/NCI, 2004)
